Assay results: paper PMC9684461, “RNA-controlled nucleocytoplasmic shuttling of mRNA decay factors regulates mRNA synthesis and a novel mRNA decay pathway” (Nature Communications, 2021)

Protein sequences, listed by entry. Tags and fused reporters are not part of them.
UniProt P22147, whole entry, stated change not applied: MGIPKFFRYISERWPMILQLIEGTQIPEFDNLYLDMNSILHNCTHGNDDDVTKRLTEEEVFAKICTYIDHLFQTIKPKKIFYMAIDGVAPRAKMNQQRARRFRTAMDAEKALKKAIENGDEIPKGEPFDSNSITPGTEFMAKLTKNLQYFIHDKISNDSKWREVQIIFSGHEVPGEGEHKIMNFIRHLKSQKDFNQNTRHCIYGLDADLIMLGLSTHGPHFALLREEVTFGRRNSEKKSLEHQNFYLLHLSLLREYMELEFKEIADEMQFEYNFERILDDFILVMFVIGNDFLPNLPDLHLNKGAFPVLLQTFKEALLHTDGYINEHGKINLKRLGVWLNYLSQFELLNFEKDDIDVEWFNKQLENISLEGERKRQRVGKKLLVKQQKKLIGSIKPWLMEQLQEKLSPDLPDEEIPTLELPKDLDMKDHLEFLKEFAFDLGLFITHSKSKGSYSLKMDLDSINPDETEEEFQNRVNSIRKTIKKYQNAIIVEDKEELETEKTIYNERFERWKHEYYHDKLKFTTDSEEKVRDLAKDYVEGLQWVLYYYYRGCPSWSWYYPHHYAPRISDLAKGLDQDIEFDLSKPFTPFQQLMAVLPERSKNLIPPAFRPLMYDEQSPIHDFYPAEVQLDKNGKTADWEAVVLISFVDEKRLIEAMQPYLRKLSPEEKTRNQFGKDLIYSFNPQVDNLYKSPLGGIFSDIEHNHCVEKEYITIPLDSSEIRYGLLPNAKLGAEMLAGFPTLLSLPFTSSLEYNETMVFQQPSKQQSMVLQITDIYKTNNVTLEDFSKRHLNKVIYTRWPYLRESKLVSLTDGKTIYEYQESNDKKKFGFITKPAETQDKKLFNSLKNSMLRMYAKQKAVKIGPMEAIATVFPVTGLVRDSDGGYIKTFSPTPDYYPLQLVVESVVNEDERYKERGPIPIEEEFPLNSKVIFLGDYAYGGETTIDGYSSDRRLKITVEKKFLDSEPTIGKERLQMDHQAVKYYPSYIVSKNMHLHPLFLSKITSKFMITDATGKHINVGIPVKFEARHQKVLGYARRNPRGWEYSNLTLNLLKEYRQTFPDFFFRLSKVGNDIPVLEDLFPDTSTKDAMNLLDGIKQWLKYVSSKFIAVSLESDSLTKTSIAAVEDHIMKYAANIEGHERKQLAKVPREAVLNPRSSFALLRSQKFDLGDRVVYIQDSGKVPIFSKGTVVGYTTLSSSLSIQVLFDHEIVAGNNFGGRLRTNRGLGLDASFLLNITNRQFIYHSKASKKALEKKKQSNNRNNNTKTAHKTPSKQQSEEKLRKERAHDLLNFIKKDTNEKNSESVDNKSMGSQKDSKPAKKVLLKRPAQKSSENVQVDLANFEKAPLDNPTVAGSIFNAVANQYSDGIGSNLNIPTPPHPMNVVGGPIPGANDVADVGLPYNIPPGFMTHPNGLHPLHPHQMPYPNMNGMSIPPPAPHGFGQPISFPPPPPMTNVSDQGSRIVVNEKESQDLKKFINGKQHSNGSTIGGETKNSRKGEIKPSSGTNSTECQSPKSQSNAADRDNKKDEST

Tests used:
[1] = target: Xrn1 Tail (Saccharomyces cerevisiae) (UniProt P22147); assay: competition with a labelled probe; conditions: RNA outcompetes Kap120-Tail interaction dose-dependently; EMSA: 50 mM Tris-HCl pH 7.4, 150 mM NaCl, 2 mM DTT, 1 mM EDTA, 30 min at room temperature, 6% native PAGE in 0.5x TBE; native protein; protein details: GFP
[2] = target: Xrn1 ΔNLS2 (Saccharomyces cerevisiae) (UniProt P22147); assay: competition with a labelled probe; conditions: 2 mM EDTA, RNA weakens Kap120 interaction; EMSA: 50 mM Tris-HCl pH 7.4, 150 mM NaCl, 2 mM DTT, 1 mM EDTA, 30 min at room temperature, 6% native PAGE in 0.5x …; native protein; protein details: FLAG

Q: Does “AUGUACAGUCCGACGAACACGGAGUCGACCCGCAACGCGA [40 nt RNA]” bind [1]?
A: Result: binds

Q: Does “AUGUACAGUCCGACGAACACGGAGUCGACCCGCAACGCGA [40 nt RNA]” bind [2]?
A: Result: binds

Construct, isoform or probe ends are uncertain for at least one entry. At least one verdict was read from the data and is not stated in words by the source.
